From publication PMC7261011
No constants are given. Whether binding was seen depends on the method and setting. Binding seen in cells or lysates may run through a third protein. Some results given as binding are weak or reduced against the parent protein; the word gives no strength.

Experiments:
[1] = target: T1, ADAM1B (UniProt Q8R534); assay: co-IP; lysates of HEK293T cells coexpressing IZUMO1 and each of the other proteins; antibody-conjugated Protein A/G magnetic beads, 1 h at 4 °C; lysis buffer 50 mM Tris pH 7.5, 150 mM NaCl, 1% Triton X-100, 10% glycerol, 1 mM DTT; Western blot
T1 sequence: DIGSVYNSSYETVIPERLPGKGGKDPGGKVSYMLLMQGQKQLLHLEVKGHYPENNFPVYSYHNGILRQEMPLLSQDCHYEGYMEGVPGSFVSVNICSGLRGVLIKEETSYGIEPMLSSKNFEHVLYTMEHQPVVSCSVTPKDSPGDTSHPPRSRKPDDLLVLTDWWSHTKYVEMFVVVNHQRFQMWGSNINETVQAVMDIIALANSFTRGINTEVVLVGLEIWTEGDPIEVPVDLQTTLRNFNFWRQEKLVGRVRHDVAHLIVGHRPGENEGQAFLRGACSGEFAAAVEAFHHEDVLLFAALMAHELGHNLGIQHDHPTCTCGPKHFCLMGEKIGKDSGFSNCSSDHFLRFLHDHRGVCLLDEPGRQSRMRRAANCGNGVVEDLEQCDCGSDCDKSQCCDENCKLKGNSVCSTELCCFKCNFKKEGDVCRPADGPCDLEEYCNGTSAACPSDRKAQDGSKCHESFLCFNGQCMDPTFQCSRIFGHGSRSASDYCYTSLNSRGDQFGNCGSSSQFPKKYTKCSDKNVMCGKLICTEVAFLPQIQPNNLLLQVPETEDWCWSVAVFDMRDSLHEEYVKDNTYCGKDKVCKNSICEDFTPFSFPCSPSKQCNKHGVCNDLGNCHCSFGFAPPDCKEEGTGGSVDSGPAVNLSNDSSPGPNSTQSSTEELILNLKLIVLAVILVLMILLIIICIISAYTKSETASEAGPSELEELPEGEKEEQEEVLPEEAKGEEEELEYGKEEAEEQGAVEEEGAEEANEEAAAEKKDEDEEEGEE

[2] = target: T2, mouse TMEM95 (transmembrane protein 95) expressed in HEK293T cells (TMEM95-1D4) (mouse) (UniProt P0DJF3); assay: as above
T2 sequence: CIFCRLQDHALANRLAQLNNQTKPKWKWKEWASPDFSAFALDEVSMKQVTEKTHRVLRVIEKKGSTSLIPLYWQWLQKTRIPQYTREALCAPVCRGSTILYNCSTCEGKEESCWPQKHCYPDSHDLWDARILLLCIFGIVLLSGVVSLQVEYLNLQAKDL

- binding [1]: no binding
- binding [2]: binds
B1: recombinant mouse IZUMO1 expressed in HEK293T cells (IZUMO1-mCherry) (protein, UniProt Q9D9J7 22-397)
chain: CIKCDQFVTDALKTFENTYLNDHLPHDIHKNVMRMVNHEVSSFGVVTSAEDSYLGAVDENTLEQATWSFLKDLKRITDSDLKGELFIKELLWMLRHQKDIFNNLARQFQKEVLCPNKCGVMSQTLIWCLKCEKQLHICRKSLDCGERHIEVHRSEDLVLDCLLSWHRASKGLTDYSFYRVWENSSETLIAKGKEPYLTKSMVGPEDAGNYRCVLDTINQGHATVIRYDVTVLPPKHSEENQPPNIITQEEHETPVHVTPQTPPGQEPESELYPELHPELYPELIPTVAQNPEKKMKTRLLILLTLGFVVLVASIIISVLHFRKVSAKLKNASDEVKPTASGSKSDQSLSQQMGLKKASQADFNSDYSGDKSEATEN
